# Measured values reported in the supplement of paper PMC3334620.
# Whole data set: some 33,000 sequences, median “E-score (-0.5 to 0.5)” near -8e-05, cut for the highest 2% near 0.23. This is one part of the list.
# Biological target: T1, Nrg2 (UniProt P38082)
# T1 sequence: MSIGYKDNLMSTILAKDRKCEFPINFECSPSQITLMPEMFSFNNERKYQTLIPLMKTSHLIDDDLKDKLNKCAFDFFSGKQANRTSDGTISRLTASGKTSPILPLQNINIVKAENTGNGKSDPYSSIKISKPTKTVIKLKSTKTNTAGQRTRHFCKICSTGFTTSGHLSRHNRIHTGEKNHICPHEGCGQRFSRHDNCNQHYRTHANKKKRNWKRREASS
# Assay: PBM E-score (8-mer binding enrichment) (E-score (-0.5 to 0.5)); higher = stronger / more preferred TF binding
# Conditions: protein concentration: 100 nM; construct: GST-full length
# Summary of the method: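 GST-tagged yeast TFs (full-length or DNA-binding domain) were made by PURExpress in vitro transcription/translation and applied at about 100-200 nM to universal all-10-mer Agilent arrays. The arrays were made double-stranded by primer extension, on fresh or once-stripped slides. Bound protein was detected with fluorescent anti-GST, and scans were normalised with masliner. Each ungapped eight-base word, pooled with its reverse complement, received an E-score (modified Wilcoxon-Mann-Whitney statistic) from the Universal PBM Analysis Suite.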
row,Sequence,PBM E-score
1,TAGAGCAA,-0.00591
2,GTCGGCGA,-0.0926
3,TGATCGAA,-0.0377
4,CAGCTCAG,0.0343
5,CCTGTCCC,-0.0853
6,ATATTTCC,0.206
7,AATGGTGT,-0.0177
8,TATGCCGA,0.0452
9,GATTAAAC,-0.0289
10,ATGTCGTA,0.0108
11,AGAACCTG,0.0774
12,CGTGTCCA,-0.147
13,TAACGATA,0.117
14,AGGGACTC,-0.0325
15,AGGGCGGA,-0.0311
16,ACCAAGTG,-0.0903
17,GTGTTTTA,0.0827
18,CCTCCGGA,-0.175
19,AACGAGGT,0.00605
20,ATTAACCA,-0.0464
21,AACACCAG,-0.124
22,CCGAGCAG,-0.0988
23,TTTCAAAA,0.0859
24,AACTGGTA,0.0325
25,TAGGGGGA,-0.296

row,Sequence,PBM E-score
1,GTTCCGAA,0.175
2,AGTACACT,-0.0585
3,TCAGCAGA,-0.116
4,CTATATTC,0.0669
5,ACGAGGCT,0.0831
6,CTAATGGA,0.0461
7,CCCCGATC,-0.216
8,GGGCATGA,-0.0401
9,GTCCCTCA,0.0343
10,CGGTCTCA,-0.194
11,GTCAAGCA,-0.238
12,AGTTAAAT,-0.224
13,ATTCAACC,0.0776
14,AGTCGCTG,-0.0881
15,TAAGTGGA,0.106
16,CCGGAAGC,0.0951
17,ATCTCCAA,0.178
18,ACAGTAAG,0.0264
19,AAGTGAGA,0.0612
20,CGCTCGTA,-0.0308
21,TAACTGCA,0.157
22,CTACAATA,0.00041
23,TAGCGGGA,-0.117
24,GCTACAAC,0.0838
25,TCGATGAA,-0.0359

# Retrieved one by one from above, six records:
row,Sequence,PBM E-score
19,AAGTGAGA,0.0612
2,AGTACACT,-0.0585
12,AGTTAAAT,-0.224
24,GCTACAAC,0.0838
21,TAACTGCA,0.157
11,GTCAAGCA,-0.238

# Later entries

row,Sequence,PBM E-score
1,ATCATCAA,0.0652
2,ATTCTCTC,0.057
3,GAGACGAA,-0.0342
4,CGAGACCC,0.263
5,CGTGTTCC,0.0481
6,CTTCGTTC,-0.00176
7,GCGTCTCC,0.00935
8,CTTTCTCA,0.192
9,GAAAAAAC,-0.0117
10,ATAATGAT,0.164
11,CTTGATGC,-0.0811
12,AGATGGAG,-0.0699
13,AGGTGCCA,0.0824
14,GAGTAGGC,-0.0622
15,CACCTGGC,-0.115
16,GCGGTAGC,-0.00411
17,ATACGGTA,0.0621
18,ATACCACA,0.0969
19,TCGGCAGA,-0.00029
20,ACCCAACC,-0.0481
21,AAGAACTT,0.0138
22,CCAATCTC,0.0106
23,ACCTAACC,0.0428
24,ATGGTATG,-0.172
25,CCAAATAA,0.107

row,Sequence,PBM E-score
1,GTATCTTA,0.197
2,AAATCAAG,0.148
3,ACATGACA,0.083
4,ACCGCTTC,-0.313
5,CCAGGTGA,-0.144
6,AGGGGGAC,-0.188
7,CCGATCAC,0.0723
8,CTAGGGCC,-0.0883
9,TAAACCGA,-0.0871
10,CGTGGGGA,0.121
11,AGCCCTGC,0.0274
12,GTTCGTCA,-0.066
13,AGGGCCAT,-0.0266
14,AACGGCTT,-0.127
15,GCAGGTGA,-0.0209
16,CTCATGTC,-0.016
17,AGCCATGG,-0.122
18,AGCCTTCC,-0.339
19,ATCGGTTC,-0.01
20,TACGGCTA,-0.104
21,CAGATGAG,0.117
22,GGGGCCAA,-0.0212
23,AGAGCTGG,-0.112
24,GGAGCCCA,-0.154
25,GACTGTAA,0.013

# An excerpt of these results, tab-delimited.
row	Sequence	PBM E-score
8	CTAGGGCC	-0.0883
9	TAAACCGA	-0.0871

# The list goes on.

row,Sequence,PBM E-score
1,GCCTTTGA,-0.0625
2,ACTTAGGA,-0.17
3,GTAGTTAA,0.127
4,CCGCTAAG,-0.0186
5,CGGGCCCG,0.123
6,AGCTCCGA,0.022
7,CAGGCCAC,-0.141
8,AGTAGATG,0.0108
9,CAGACGCG,-0.0888
10,AGGGGTAC,0.142
11,CTATTCAA,0.0974
12,GTGACACA,0.117
13,GGGAGTAA,0.0514
14,ACCGGGAA,0.0186
15,AGCACGCG,-0.042
16,ACTCATTG,-0.0157
17,AGCTTGGC,-0.157
18,GTAGCCCA,-0.198
19,GCAGGGGA,-0.192
20,CGGAACGC,-0.0791
21,AGCCTGGC,-0.197
22,CCGGAGTC,-0.227
23,GCTATAGA,-0.153
24,CGGACCTC,-0.0835
25,CGCTTGGC,-0.191

row,Sequence,PBM E-score
1,CGAGACTA,0.00381
2,GATGCGGC,-0.094
3,AGTTTAAC,-0.0855
4,AGTAGACC,0.047
5,CTGCCTGC,-0.275
6,CACCCCTA,0.0524
7,CACCGCCG,-0.0483
8,CAATATGA,0.0437
9,ATACCCTA,0.119
10,CGTTGCAA,0.0314
11,AATCTCTA,0.228
12,GCTAAGAC,-0.0363
13,CCGTTGGC,-0.0235
14,ATAAACGC,-0.0764
15,CAAGCTCG,0.0858
16,CTGTATCC,0.0513
17,AAGCGGAG,-0.175
18,CGCACAGA,0.00739
19,CGCGACAG,0.11
20,CTCCGTAA,-0.214
21,CCCATCTC,0.0243
22,TGAACTAA,0.144
23,AATGTACC,-0.264
24,CCTACTCA,0.05
25,CGTTTCCC,-0.106

row,Sequence,PBM E-score
1,AAGTTATC,0.0623
2,CTCGAGAG,0.00914
3,GGATAACC,-0.141
4,AGAGGGCG,-0.146
5,ACAGTGAA,0.0367
6,GACCTGAC,0.0547
7,CCCAGTAG,-0.132
8,GGCATAAA,0.0686
9,AAAGACAG,0.147
10,GTAGGAGA,-0.205
11,GAGGCCCA,-0.181
12,AGCCCCTA,-0.103
13,GAGATCGC,-0.118
14,ACGGTGAG,-0.00711
15,CCATGGTA,0.117
16,CATCCTGA,0.0368
17,CCCCCAAA,-0.375
18,CCTCTGAG,-0.00848
19,TACCGCAA,0.0205
20,ACACGTTG,-0.151
21,ACATCCCC,0.141
22,AGAAACGA,0.159
